From article PMC5661649, “G-protein-coupled receptors mediate 14-3-3 signal transduction” (Signal Transduction and Targeted Therapy, 2016)
These are yes or no findings as the source states them, for the method shown. Some results given as binding are weak or reduced against the parent protein; the word gives no strength.

The chains behind the UniProt entries cited, without tags or fusion partners.
UniProt P35348: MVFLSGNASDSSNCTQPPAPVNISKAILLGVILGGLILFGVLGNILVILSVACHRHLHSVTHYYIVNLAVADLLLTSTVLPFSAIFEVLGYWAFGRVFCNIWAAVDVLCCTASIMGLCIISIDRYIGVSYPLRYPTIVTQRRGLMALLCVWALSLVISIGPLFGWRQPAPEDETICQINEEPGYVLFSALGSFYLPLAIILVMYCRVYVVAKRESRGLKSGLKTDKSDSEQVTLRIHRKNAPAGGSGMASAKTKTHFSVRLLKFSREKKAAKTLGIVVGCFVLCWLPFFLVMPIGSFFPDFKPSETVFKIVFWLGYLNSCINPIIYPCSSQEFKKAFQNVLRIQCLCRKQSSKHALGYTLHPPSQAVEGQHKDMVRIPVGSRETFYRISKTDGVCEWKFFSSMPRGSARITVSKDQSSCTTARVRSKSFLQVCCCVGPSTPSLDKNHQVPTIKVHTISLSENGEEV
UniProt P14416: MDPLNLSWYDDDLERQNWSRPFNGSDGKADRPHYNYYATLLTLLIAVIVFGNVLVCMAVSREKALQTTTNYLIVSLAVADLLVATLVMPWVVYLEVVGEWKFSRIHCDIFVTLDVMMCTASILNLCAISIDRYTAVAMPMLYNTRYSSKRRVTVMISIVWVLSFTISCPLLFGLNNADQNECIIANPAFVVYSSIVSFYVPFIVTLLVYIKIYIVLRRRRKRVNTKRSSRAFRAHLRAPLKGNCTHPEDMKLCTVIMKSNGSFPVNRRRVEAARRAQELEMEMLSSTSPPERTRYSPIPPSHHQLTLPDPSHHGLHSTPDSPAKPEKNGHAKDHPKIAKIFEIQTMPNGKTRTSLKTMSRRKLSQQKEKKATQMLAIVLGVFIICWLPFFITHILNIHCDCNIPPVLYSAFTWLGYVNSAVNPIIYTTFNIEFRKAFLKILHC
UniProt P20309: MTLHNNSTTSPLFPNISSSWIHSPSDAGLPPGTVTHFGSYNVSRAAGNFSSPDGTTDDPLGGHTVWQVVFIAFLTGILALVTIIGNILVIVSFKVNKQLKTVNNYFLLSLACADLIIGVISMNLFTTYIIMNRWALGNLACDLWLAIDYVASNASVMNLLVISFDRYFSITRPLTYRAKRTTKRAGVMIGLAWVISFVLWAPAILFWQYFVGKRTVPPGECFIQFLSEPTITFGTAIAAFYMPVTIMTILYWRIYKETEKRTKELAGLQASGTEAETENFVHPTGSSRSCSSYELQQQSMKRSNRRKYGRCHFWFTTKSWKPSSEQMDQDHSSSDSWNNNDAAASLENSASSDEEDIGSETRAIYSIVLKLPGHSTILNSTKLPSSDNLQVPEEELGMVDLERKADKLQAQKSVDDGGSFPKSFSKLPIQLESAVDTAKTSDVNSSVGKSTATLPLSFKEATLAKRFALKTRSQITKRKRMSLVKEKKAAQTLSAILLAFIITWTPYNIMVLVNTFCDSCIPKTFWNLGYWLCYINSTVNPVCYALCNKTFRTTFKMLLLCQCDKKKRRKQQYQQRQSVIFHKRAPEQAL
UniProt P13945: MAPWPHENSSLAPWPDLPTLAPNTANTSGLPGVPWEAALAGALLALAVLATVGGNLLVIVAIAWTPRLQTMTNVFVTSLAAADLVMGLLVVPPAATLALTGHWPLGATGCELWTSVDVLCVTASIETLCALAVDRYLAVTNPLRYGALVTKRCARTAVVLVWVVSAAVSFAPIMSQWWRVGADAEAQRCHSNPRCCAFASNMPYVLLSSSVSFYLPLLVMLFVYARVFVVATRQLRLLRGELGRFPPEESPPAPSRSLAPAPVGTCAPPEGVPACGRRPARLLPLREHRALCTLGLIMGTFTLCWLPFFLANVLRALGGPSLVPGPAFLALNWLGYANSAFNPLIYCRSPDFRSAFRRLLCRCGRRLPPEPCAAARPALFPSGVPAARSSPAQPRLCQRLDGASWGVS
UniProt P08912: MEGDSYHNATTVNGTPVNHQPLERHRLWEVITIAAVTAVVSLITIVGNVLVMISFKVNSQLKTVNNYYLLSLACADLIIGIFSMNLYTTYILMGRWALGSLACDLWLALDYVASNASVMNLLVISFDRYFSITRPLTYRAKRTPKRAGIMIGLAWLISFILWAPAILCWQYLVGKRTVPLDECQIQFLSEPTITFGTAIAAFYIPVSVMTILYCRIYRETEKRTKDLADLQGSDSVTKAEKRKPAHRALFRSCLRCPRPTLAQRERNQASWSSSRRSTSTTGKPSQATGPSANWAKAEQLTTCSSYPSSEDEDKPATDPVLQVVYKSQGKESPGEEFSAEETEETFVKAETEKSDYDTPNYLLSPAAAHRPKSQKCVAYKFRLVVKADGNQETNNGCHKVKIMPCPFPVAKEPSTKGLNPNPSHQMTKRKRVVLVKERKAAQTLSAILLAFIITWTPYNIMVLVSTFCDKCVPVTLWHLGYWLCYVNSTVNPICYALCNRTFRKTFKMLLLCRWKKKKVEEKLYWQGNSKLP
UniProt P62258: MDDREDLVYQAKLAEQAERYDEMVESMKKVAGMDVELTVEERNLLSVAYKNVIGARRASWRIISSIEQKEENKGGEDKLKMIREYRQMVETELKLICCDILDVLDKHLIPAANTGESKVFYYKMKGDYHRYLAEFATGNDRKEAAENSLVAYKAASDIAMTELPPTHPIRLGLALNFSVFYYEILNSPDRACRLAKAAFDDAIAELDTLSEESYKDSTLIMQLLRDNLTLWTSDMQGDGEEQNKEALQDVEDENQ
UniProt P32121: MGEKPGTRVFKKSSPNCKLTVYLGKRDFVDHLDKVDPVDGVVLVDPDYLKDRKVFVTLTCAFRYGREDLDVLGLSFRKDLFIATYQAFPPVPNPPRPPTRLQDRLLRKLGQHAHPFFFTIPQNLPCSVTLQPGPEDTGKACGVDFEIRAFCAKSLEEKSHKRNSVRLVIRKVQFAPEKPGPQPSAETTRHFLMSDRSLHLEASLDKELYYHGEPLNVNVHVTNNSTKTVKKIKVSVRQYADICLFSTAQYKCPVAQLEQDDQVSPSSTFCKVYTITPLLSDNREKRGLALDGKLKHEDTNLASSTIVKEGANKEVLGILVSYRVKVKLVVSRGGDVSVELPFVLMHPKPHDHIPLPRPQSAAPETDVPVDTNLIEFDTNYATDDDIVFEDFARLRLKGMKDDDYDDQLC
UniProt P63104: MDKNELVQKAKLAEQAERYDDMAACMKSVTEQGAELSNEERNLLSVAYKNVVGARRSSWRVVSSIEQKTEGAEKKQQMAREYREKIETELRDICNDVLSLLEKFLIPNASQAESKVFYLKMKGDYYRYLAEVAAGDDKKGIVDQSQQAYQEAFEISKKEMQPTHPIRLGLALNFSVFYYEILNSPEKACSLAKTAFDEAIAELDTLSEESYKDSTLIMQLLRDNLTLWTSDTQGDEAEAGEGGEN

How the values were obtained:
Assay in all cases: LinkLight (TEV protease on one partner cleaves permuted luciferase on the other)
[1] = molecular target: Raf-1 fused to TEV protease (UniProt P04049)
[2] = molecular target: Alpha adrenergic receptor 1A (α1AR) fused to TEV protease (human) (UniProt P35348)
[3] = molecular target: adenosine receptor A2a (ADORA2A) fused to TEV protease (human) (UniProt P29274)
[4] = molecular target: dopamine receptor D2 (DRD2) fused to TEV protease (human) (UniProt P14416)
[5] = molecular target: muscarinic cholinergic receptor 3 (CHRM3) fused to TEV protease (human) (UniProt P20309)
[6] = molecular target: β3 adrenergic receptor (ADRB3) fused to TEV protease (human) (UniProt P13945)
[7] = molecular target: β2-adrenergic receptor (ADRB2) fused to tobacco etch virus (TEV) protease (human) (UniProt P07550)
[8] = molecular target: muscarinic cholinergic receptor 5 (CHRM5) fused to TEV protease (human) (UniProt P08912)
[9] = molecular target: β2-adrenergic receptor (ADRB2) fused to permuted luciferase (human) (UniProt P07550)

In the case of “14-3-3 epsilon fused to permuted luciferase (in U2OS cells) (from UniProt P62258 1-255)”, the binding [1] is reported as “binds”.
With “β-arrestin-2-permuted luciferase (from UniProt P32121 1-409)” the binding [2] was “binds”.
In the case of “14-3-3 epsilon fused to permuted luciferase (from UniProt P62258 1-255)”, the binding [3] is reported as “binds”, the binding [4] is reported as “binds” and the binding [5] is reported as “binds”. The binding [6] was “binds”, the binding [7] was “binds” and the binding [8] was “binds”. For the same substance, the binding [2] was “binds”.
For “14-3-3 zeta fused to permuted luciferase (from UniProt P63104 1-245)”, the binding [7] was “binds”.
“14-3-3 epsilon fused to TEV protease (from UniProt P62258 1-255)” was tested, and the binding [9] was “binds”.
